{"sequences": {"note": "Protein sequences, listed by entry. Tags and fused reporters are not part of them.", "UniProt Q93008": "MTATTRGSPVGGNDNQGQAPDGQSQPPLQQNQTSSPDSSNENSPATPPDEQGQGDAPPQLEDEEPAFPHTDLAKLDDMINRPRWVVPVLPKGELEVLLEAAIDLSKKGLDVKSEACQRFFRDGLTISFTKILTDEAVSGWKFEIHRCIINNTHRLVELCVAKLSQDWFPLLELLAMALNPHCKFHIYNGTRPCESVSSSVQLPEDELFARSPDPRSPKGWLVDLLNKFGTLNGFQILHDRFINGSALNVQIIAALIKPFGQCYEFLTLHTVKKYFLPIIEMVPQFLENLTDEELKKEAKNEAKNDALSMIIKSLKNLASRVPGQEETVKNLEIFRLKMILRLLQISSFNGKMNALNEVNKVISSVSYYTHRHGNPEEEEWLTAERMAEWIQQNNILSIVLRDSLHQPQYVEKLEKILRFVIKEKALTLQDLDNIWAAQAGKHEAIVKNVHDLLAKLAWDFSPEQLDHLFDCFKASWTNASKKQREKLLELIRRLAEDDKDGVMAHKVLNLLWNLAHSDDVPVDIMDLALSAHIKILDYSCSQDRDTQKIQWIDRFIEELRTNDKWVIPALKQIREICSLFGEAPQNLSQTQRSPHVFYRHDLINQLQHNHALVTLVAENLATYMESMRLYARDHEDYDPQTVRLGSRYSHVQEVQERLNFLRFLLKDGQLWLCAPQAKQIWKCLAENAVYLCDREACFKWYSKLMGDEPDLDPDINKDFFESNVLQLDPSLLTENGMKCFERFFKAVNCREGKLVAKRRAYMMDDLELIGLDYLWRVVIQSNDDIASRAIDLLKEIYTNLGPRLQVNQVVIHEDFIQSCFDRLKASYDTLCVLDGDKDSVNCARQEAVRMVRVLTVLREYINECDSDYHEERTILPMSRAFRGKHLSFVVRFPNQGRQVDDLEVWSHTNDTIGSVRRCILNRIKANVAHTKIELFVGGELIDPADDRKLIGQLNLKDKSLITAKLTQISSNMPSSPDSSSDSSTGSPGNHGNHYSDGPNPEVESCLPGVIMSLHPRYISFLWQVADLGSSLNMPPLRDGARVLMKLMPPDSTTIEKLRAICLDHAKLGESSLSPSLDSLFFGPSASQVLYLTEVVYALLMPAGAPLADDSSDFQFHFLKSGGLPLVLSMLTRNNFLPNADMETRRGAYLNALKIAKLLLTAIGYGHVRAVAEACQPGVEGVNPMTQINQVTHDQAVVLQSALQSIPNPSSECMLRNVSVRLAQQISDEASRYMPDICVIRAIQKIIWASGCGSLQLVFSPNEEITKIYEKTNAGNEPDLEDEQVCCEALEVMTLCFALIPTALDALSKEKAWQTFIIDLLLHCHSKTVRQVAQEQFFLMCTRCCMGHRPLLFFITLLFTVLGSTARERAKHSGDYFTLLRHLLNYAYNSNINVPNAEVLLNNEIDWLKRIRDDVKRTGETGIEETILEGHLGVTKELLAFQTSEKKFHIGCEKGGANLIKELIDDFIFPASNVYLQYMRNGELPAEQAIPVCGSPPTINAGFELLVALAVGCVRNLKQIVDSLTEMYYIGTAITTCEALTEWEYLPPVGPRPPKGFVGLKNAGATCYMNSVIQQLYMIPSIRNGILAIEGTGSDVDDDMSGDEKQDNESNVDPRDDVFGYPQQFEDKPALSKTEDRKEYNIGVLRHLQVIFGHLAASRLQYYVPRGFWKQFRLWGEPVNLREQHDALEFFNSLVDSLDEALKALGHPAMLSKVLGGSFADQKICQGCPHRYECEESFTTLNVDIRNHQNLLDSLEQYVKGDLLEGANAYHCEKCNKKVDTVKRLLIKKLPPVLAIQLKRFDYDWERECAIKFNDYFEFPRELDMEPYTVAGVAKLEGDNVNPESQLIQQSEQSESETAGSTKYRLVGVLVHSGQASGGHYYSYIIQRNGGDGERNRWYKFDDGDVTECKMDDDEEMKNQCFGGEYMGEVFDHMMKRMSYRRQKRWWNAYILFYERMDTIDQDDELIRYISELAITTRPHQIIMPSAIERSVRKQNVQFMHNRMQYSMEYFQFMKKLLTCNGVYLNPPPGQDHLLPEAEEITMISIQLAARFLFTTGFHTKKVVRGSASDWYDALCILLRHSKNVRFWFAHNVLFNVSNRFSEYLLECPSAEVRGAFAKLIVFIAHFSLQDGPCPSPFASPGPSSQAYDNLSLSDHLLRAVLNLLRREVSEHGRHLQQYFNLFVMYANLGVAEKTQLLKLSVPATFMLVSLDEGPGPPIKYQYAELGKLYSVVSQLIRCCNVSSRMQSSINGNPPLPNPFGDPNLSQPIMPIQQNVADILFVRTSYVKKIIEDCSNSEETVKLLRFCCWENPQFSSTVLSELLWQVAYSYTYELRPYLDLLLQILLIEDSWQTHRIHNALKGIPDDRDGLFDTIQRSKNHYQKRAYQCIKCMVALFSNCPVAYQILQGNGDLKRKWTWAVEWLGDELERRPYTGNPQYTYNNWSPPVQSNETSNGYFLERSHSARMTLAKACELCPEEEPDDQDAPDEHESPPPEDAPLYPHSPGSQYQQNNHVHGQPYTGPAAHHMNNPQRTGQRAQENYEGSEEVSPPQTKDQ", "UniProt Q13049": "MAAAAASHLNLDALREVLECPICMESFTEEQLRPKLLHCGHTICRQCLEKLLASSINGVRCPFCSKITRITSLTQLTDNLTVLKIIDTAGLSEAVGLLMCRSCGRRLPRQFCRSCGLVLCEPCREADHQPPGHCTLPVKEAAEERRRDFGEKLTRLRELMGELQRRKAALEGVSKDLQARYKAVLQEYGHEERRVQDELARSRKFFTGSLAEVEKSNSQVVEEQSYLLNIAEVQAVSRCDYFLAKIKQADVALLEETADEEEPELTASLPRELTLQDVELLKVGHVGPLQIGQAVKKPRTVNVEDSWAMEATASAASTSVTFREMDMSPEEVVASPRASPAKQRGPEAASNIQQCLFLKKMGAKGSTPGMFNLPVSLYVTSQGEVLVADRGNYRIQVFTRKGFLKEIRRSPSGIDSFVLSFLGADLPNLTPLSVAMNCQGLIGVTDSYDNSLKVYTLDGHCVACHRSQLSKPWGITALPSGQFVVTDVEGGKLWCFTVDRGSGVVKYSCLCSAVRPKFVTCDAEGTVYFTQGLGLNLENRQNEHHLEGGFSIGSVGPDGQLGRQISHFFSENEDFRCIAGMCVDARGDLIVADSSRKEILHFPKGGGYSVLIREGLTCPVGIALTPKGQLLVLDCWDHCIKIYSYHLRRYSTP"}, "source": "paper PMC5446187", "about": "“USP9X counteracts differential ubiquitination of NPHP5 by MARCH7 and BBS11 to regulate ciliogenesis” (PLoS Genetics, 2017)", "molecules": {"B1": {"name": "Flag-NPHP5 (nephrocystin-5), full length 1-598 (natural protein, UniProt Q15051 1-598, looked up)", "chain": "MKPTGTDPRILSIAAEVAKSPEQNVPVILLKLKEIINITPLGSSELKKIKQDIYCYDLIQYCLLVLSQDYSRIQGGWTTISQLTQILSHCCVGLEPGEDAEEFYNELLPSAAENFLVLGRQLQTCFINAAKAEEKDELLHFFQIVTDSLFWLLGGHVELIQNVLQSDHFLHLLQADNVQIGSAVMMMLQNILQINSGDLLRIGRKALYSILDEVIFKLFSTPSPVIRSTATKLLLLMAESHQEILILLRQSTCYKGLRRLLSKQETGTEFSQELRQLVGLLSPMVYQEVEEQKLHQAACLIQAYWKGFQTRKRLKKLPSAVIALQRSFRSKRSKMLLEINRQKEEEDLKLQLQLQRQRAMRLSRELQLSMLEIVHPGQVEKHYREMEEKSALIIQKHWRGYRERKNFHQQRQSLIEYKAAVTLQRAALKFLAKCRKKKKLFAPWRGLQELTDARRVELKKRVDDYVRRHLGSPMSDVVSRELHAQAQERLQHYFMGRALEERAQQHREALIAQISTNVEQLMKAPSLKEAEGKEPELFLSRSRPVAAKAKQAHLTTLKHIQAPWWKKLGEESGDEIDVPKDELSIELENLFIGGTKPP", "notes": "also called IQCB1; source: HEK293, transfected, in lysate; also purified from HEK293 (anti-Flag immunoprecipitation, 500 mM NaCl washes, eluted with Flag peptide)"}, "B2": {"name": "NPHP5 (nephrocystin-5), endogenous (protein, UniProt Q15051 1-598)", "chain": "B1 chain"}}, "key": {"[1]": {"target": "T1, Flag-NPHP5 (nephrocystin-5), full length 1-598 (UniProt Q15051)", "T1 sequence": "B1 chain", "assay": "co-IP; anti-Flag immunoprecipitation from lysates of HEK293 cells expressing Flag-NPHP5 or its fragments (alone or with GFP-tagged partner), Western blot"}, "Flag-NPHP5 20-598": {"target": "T2, Flag-NPHP5 20-598 (UniProt Q15051)", "T2 sequence": "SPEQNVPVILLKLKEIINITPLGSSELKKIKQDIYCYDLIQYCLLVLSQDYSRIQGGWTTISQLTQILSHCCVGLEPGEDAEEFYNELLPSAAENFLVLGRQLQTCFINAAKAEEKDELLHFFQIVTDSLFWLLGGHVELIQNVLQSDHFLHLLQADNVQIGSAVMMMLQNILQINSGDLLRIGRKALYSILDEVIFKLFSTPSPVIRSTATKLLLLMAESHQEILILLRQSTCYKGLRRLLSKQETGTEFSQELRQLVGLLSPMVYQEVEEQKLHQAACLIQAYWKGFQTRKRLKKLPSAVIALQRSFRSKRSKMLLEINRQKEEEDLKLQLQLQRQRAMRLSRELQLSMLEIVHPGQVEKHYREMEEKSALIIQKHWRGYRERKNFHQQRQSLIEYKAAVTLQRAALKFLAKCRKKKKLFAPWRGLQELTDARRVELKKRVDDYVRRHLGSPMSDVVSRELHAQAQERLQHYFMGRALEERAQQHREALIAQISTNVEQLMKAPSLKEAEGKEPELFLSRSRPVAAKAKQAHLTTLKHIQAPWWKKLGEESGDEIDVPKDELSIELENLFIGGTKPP", "assay": "co-IP; anti-Flag immunoprecipitation from lysates of HEK293 cells expressing Flag-NPHP5 or its fragments (alone or with GFP-tagged partner), Western blot"}, "[2]": {"target": "T1, Flag-NPHP5 (nephrocystin-5), full length 1-598", "assay": "condition: only with 1% SDS (denaturing conditions); co-IP; anti-Flag immunoprecipitation of Flag-NPHP5 from HEK293 lysate under denaturing conditions with 1% SDS, Western blot"}, "[3]": {"target": "T3, NPHP5 (nephrocystin-5), endogenous (human (endogenous in HEK293, U2OS, RPE-1)) (UniProt Q15051)", "T3 sequence": "B1 chain", "assay": "co-IP; endogenous proteins; anti-NPHP5 (IRCM1, C-terminus) or anti-USP9X immunoprecipitation from HEK293, U2OS and RPE-1 lysates, asynchronous or synchronised in cell cycle phases (strong in G0, G1, S; substantially weaker in G2, M), Western blot"}, "Myc-MARCH7 wild type": {"target": "T4, Myc-MARCH7 wild type (UniProt Q9H992)", "T4 sequence": "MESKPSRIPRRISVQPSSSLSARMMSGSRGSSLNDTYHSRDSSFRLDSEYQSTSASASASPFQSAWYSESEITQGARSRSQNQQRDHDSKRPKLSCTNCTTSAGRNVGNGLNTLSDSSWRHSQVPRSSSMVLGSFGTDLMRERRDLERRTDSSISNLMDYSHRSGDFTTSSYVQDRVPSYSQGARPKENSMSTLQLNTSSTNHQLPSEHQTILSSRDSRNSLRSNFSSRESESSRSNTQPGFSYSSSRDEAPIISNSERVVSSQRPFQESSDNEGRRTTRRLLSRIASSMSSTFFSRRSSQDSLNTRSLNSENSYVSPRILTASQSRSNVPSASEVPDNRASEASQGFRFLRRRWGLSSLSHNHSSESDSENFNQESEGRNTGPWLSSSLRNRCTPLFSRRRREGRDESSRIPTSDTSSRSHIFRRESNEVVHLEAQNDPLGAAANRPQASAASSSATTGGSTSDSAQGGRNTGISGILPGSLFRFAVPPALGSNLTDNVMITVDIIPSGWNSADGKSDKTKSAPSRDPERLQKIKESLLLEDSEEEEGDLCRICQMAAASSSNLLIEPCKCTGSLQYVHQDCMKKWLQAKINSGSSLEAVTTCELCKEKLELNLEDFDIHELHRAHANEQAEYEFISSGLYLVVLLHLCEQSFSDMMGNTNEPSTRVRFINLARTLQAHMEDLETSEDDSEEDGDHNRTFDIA", "assay": "co-IP; anti-Myc immunoprecipitation from lysates of HEK293 cells co-expressing Myc-MARCH7 and Flag-NPHP5, with control or USP9X siRNA (stronger upon USP9X depletion), Western blot"}, "[4]": {"target": "USP9X/FAM, endogenous (human (endogenous in HEK293, U2OS, RPE-1)) (UniProt Q93008)", "assay": "co-IP; endogenous proteins; anti-NPHP5 (IRCM1, C-terminus) or anti-USP9X immunoprecipitation from HEK293, U2OS and RPE-1 lysates, asynchronous or synchronised in cell cycle phases (strong in G0, G1, S; substantially weaker in G2, M), Western blot"}}, "note": "These are yes or no findings as the source states them, for the method shown. In cells and extracts the contact can be indirect. Some binding calls cover weakened binding; strength is not graded here. For some of these results: Tags and fused reporters may be left off the sequences shown.", "data": [{"molecule": "USP9X/FAM, endogenous (from UniProt Q93008 1-2554) (enzyme)", "values": [{"measurement": "binding", "setting": "[1]", "value": "binds"}, {"measurement": "binding", "setting": "Flag-NPHP5 20-598", "value": "no binding"}, {"measurement": "binding", "setting": "[2]", "value": "no binding"}, {"measurement": "binding", "setting": "[3]", "value": "binds"}]}, {"molecule": "GFP-BBS11 wild type (human) (from UniProt Q13049 1-653) (enzyme)", "values": [{"measurement": "binding", "setting": "[1]", "value": "binds"}]}, {"molecule": "B1", "values": [{"measurement": "binding", "setting": "Myc-MARCH7 wild type", "value": "binds"}]}, {"molecule": "B2", "values": [{"measurement": "binding", "setting": "[4]", "value": "binds"}]}]}
